# Measured values from PMC12572374, “Regulation of ADP-ribosyltransferase activity by ART domain dimerization in PARP15” (Nature Communications, 2025).
# Numbering of substitutions follows the chain as printed. Numbers in names are those of the source. These are yes or no findings as the source states them, for the method shown. For part of these data: Tags and fused reporters may be left off the sequences shown.
# T1: human PARP15 ART domain (Asn481-Ala678), wild type (human) (UniProt Q460N3)
# T1 sequence: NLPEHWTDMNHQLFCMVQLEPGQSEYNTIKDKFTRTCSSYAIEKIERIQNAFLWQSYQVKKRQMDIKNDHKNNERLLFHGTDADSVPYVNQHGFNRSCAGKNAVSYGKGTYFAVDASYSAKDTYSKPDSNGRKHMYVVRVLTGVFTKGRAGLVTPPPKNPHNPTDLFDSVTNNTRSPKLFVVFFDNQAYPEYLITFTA
# B1: human PARP14 ART domain (His1608-Lys1801) (domain or fragment, UniProt Q460N5 1608-1801)
# chain: HWSDMKQQNFCVVELLPSDPEYNTVASKFNQTCSHFRIEKIERIQNPDLWNSYQAKKKTMDAKNGQTMNEKQLFHGTDAGSVPHVNRNGFNRSYAGKNAVAYGKGTYFAVNANYSANDTYSRPDANGRKHVYYVRVLTGIYTHGNHSLIVPPSKNPQNPTDLYDTVTDNVHHPSLFVAFYDYQAYPEYLITFRK
# B2: PARP15 ART domain (Asn481-Ala678) D665A (domain or fragment, UniProt Q460N3 481-678)
# chain: T1 sequence with D185A
# B3: PARP15 ART domain (Asn481-Ala678) D665R (domain or fragment, UniProt Q460N3 481-678)
# chain: T1 sequence with D185R
# B4: PARP15 macrodomain-2 (Gly287-Asn470) (domain or fragment, UniProt Q460N3 287-470)
# chain: GTVSKPCFTAYEMKIGAITFQVATGDIATEQVDVIVNSTARTFNRKSGVSRAILEGAGQAVESECAVLAAQPHRDFIITPGGCLKCKIIIHVPGGKDVRKTVTSVLEECEQRKYTSVSLPAIGTGNAGKNPITVADNIIDAIVDFSSQHSTPSLKTVKVVIFQPELLNIFYDSMKKRDLSASLN
# B5: human PARP15 ART domain (Asn481-Ala678), wild type (domain or fragment, UniProt Q460N3 481-678)
# chain: T1 sequence
# B6: PARP15 macrodomain-2 + ART domain construct (m2-ART; Gly287-Ala678) (domain or fragment, human, UniProt Q460N3 287-678, looked up)
# chain: GTVSKPCFTAYEMKIGAITFQVATGDIATEQVDVIVNSTARTFNRKSGVSRAILEGAGQAVESECAVLAAQPHRDFIITPGGCLKCKIIIHVPGGKDVRKTVTSVLEECEQRKYTSVSLPAIGTGNAGKNPITVADNIIDAIVDFSSQHSTPSLKTVKVVIFQPELLNIFYDSMKKRDLSASLNFQSTFSMTTCNLPEHWTDMNHQLFCMVQLEPGQSEYNTIKDKFTRTCSSYAIEKIERIQNAFLWQSYQVKKRQMDIKNDHKNNERLLFHGTDADSVPYVNQHGFNRSCAGKNAVSYGKGTYFAVDASYSAKDTYSKPDSNGRKHMYVVRVLTGVFTKGRAGLVTPPPKNPHNPTDLFDSVTNNTRSPKLFVVFFDNQAYPEYLITFTA
# notes: PARP15, human, macrodomain-2 and ART domain, residues Gly287-Ala678 of the canonical isoform (isoform 1); synthetic gene, codon optimised for E. coli, in pET151/TOPO; also called PARP15 m2-ART; PARP15 isoform-2 (m2-ART); source: E. coli BL21(DE3), purified (HiTrap TALON, Superdex 200 SEC, HiTrap SP XL cation exchange)
# B7: PARP15 ART domain (Asn481-Ala678) R576D (domain or fragment, UniProt Q460N3 481-678)
# chain: T1 sequence with R96D
# What was measured:
# [1] = target: human PARP14 ART domain (His1608-Lys1801) (human) (UniProt Q460N5); experiment: cross-linking; BS3 at 2:1 protein to crosslinker, protein at 2, 10 or 20 µM, 10 min room temperature, 50 mM HEPES pH 7.5, 100 mM NaCl, 4 mM MgCl2, 0.2 mM TCEP; SDS-PAGE, Coomassie; both purified
# [2] = target: human PARP14 ART domain (His1608-Lys1801) (human) (UniProt Q460N5); experiment: SEC-MALS; SEC-RALS/LALS (OMNISEC), Superdex 200 Increase 10/300 GL; 120 µl at 0.75 mg/ml PARP15 constructs, 0.35 mg/ml PARP14 ART, 0.65 mg/ml PARP10 ART; 50 mM HEPES pH 7.5, 300 mM NaCl, 1 mM TCEP; both purified
# [3] = target: PARP15 ART domain (Asn481-Ala678) D665A (human) (UniProt Q460N3); experiment: SEC; analytical SEC, Superdex 200 Increase 10/300 GL, 100 µl of each ART construct at 0.7 mg/ml; 50 mM HEPES pH 7.5, 300 mM NaCl, 10% glycerol, 0.5 mM TCEP; both purified
# [4] = target: PARP15 ART domain (Asn481-Ala678) D665R (human) (UniProt Q460N3); experiment: as above
# [5] = target: PARP15 macrodomain-2 (Gly287-Asn470) (human) (UniProt Q460N3); experiment: cross-linking; BS3 at 2:1 protein to crosslinker, protein at 2, 10 or 20 µM, 10 min room temperature, 50 mM HEPES pH 7.5, 100 mM NaCl, 4 mM MgCl2, 0.2 mM TCEP; SDS-PAGE, Coomassie; both purified
# [6] = target: PARP15 macrodomain-2 (Gly287-Asn470) (human) (UniProt Q460N3); experiment: SEC-MALS; SEC-RALS/LALS (OMNISEC), Superdex 200 Increase 10/300 GL; 120 µl at 0.75 mg/ml PARP15 constructs, 0.35 mg/ml PARP14 ART, 0.65 mg/ml PARP10 ART; 50 mM HEPES pH 7.5, 300 mM NaCl, 1 mM TCEP; both purified
# [7] = target: T1, human PARP15 ART domain (Asn481-Ala678), wild type (human); experiment: mass photometry; single particle sizing at low nanomolar protein concentrations; 20 mM HEPES pH 7.5, 50 mM NaCl, 4 mM MgCl2, 0.5 mM TCEP; both purified
# [8] = target: PARP15 macrodomain-2 + ART domain construct (m2-ART; Gly287-Ala678) (human) (UniProt Q460N3); experiment: as above
# [9] = target: PARP15 ART domain (Asn481-Ala678) R576D (human) (UniProt Q460N3); experiment: SEC; analytical SEC, Superdex 200 Increase 10/300 GL, 100 µl of each ART construct at 0.7 mg/ml; 50 mM HEPES pH 7.5, 300 mM NaCl, 10% glycerol, 0.5 mM TCEP; both purified
binder,measurement,setting,value
B1,binding,[1],"no binding (tested: 2, 10, or 20 µM)"
same,binding,[2],no binding (tested: 0.35 mg/ml)
B2,binding,[3],no binding (tested: 0.7 mg/ml)
B3,binding,[4],no binding (tested: 0.7 mg/ml)
B4,binding,[5],"no binding (tested: 2, 10, or 20 µM)"
same,binding,[6],no binding (tested: 0.75 mg/ml)
B5,binding,[7],no binding (condition: at low nanomolar concentrations)
B6,binding,[8],no binding (condition: at low nanomolar concentrations)
B7,binding,[9],no binding (tested: 0.7 mg/ml)
